Assay results taken from PubChem BioAssay AID1487 (National Center for Advancing Translational Sciences (NCATS), 2009).
The other results are listed elsewhere or left out. These are further read-outs of the screen, such as a control signal, another cell line or another target. No call is given for them. Most of these compounds were active or inconclusive in the main read-out, so they are no random draw. Potencies come from curve fits of mixed quality, noted in brackets.

Assay: qHTS Assay for Modulators of Lamin A Splicing
Conditions: HeLa LMNA splicing GFP/RFP minigene ratio, 48 h
Summary of the method: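 Read-out is the ratio of GFP to DsRed2 object intensity, acquired by 488 nm laser-scanning cytometry on HeLa lamin A-EGFP minigene reporter cells. Compound incubation 48 hrs at 37 °C in Opti-MEM with 2% FBS; DMSO 0.5% final.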

[1] = measured here: GFP splicing reporter channel
[2] = measured here: RFP viability control channel

Cc1c(NC(=O)CCCCCN2C(=O)c3ccccc3C2=O)c(=O)n(-c2ccccc2)n1C
AC50 [1]: 0.891 µM [falling, partial curve] | AC50 [2]: 1.41 µM [falling, full curve, poor fit]

NNc1nc2c(Cl)ccc(Cl)c2s1
AC50 [2]: 15.8 µM [rising, single point]

CC(CN1CCCCC1)NC(=O)c1cc(-c2ccccn2)nc2ccc(Cl)cc12 (stereo not drawn)
AC50 [1]: 35.5 µM [falling, single point]

O=C(CN1CCN(S(=O)(=O)c2ccc3ccccc3c2)CC1)Nc1ccc2c(c1)CCC2
AC50 [1]: 28.2 µM [rising, single point] | AC50 [2]: 35.5 µM [rising, single point]

O=c1[nH]cnc2c1ncn2Cc1ccc([N+](=O)[O-])cc1
AC50 [2]: 22.4 µM [falling, partial curve, poor fit]

CCn1c(CSCc2ccccc2)n[nH]c1=S
AC50 [1]: 0.282 µM [falling, single point]

Cc1[nH]n(-c2ccccc2)c(=O)c1C=NC1CCCCCC1
AC50 [1]: 0.0141 µM [falling, full curve, poor fit] | AC50 [2]: 0.0501 µM [falling, full curve, poor fit]

CCCN(CCC)c1nc(NC2CCN(C(=O)OCC)CC2)nc(OC)n1
AC50 [1]: 8.91 µM [rising, partial curve] | AC50 [2]: 10 µM [rising, partial curve]

Cc1cc2cc(CN(Cc3ccc4c(c3)OCO4)C(=O)c3ccco3)c(=O)[nH]c2cc1C
AC50 [1]: 35.5 µM [rising, single point]

CCc1nnc(NC(=O)c2ccc3ncsc3c2)s1
AC50 [2]: 0.891 µM [falling, full curve, poor fit]

Cc1ccc(C)c(N2CCN(C(=O)Cc3cn(C)c4ccccc34)CC2)c1
AC50 [1]: 14.1 µM [rising, partial curve] | AC50 [2]: 15.8 µM [rising, partial curve]

Cc1cc(C)c2ccc(N)nc2c1O
AC50 [2]: 17.8 µM [rising, single point]

COc1ccccc1/C=C(/CC(=O)NCc1ccccc1)c1nc2ccccc2s1
AC50 [2]: 15.8 µM [rising, single point]

CCOc1ccccc1N1CCN(C(=S)Nc2ccc(S(N)(=O)=O)cc2)CC1
AC50 [2]: 12.6 µM [rising, partial curve]

Cc1onc(-c2ccccc2)c1C(=O)NNC(=S)NC(=O)c1ccc(Br)cc1
AC50 [1]: 3.98 µM [falling, partial curve, poor fit]

Cc1cc2c(C)cc(=O)oc2c2c1NCCC2
AC50 [2]: 11.2 µM [rising, single point]

Cc1ccc(C)[n+](CC(=O)N2CCCCC2)c1
AC50 [2]: 6.31 µM [rising, partial curve]

COc1ccc(/C=N/NC(=O)C2c3ccccc3-c3ccccc32)cc1
AC50 [2]: 35.5 µM [rising, single point]

CC(C)OCCCNC(=O)CCC(=O)NNc1nc2ccccc2c2nc(-c3ccccc3)nn12
AC50 [2]: 14.1 µM [rising, single point]

CCc1ccc(OCC(=O)Nc2ccc(-c3nc4ccccc4o3)c(O)c2)cc1
AC50 [2]: 5.62 µM [falling, single point]

CCCOC(=O)NC(CC)COC(=O)Nc1cccc(C)c1C (stereo not drawn)
AC50 [2]: 35.5 µM [rising, single point]

CCOC(=O)c1c(NC(=O)C2CCCN(S(=O)(=O)c3ccccc3)C2)sc2c1CCCC2 (stereo not drawn)
AC50 [1]: 3.98 µM [rising, partial curve] | AC50 [2]: 12.6 µM [rising, partial curve]

CCCc1nnc(NC(=S)Nc2ccccc2)s1
AC50 [2]: 11.2 µM [falling, partial curve]

COc1ccc(C(=O)N/N=C/c2ccc(OC)c(CN3CCCc4ccccc43)c2)cc1
AC50 [2]: 10 µM [rising, partial curve]

Cc1ccn2c(NC(=O)C(C)(C)Oc3ccc(Cl)cc3)c(-c3cccs3)nc2c1
AC50 [2]: 14.1 µM [rising, partial curve, poor fit]

CCC1CN(C(=O)N2CCC(C(=O)NCCCc3ccccc3)CC2)c2ccccc2O1 (stereo not drawn)
AC50 [1]: 31.6 µM [falling, single point] | AC50 [2]: 35.5 µM [falling, single point]

O=C(Nc1ccc(Cl)c(S(=O)(=O)Nc2ccccc2Cl)c1)c1cccs1
AC50 [2]: 28.2 µM [rising, single point]

CCN1/C(=C/c2ccc3cc(C)ccc3[n+]2C)Sc2ccc3sccc3c21
AC50 [2]: 20 µM [rising, single point]

CC(C)(C)NCC(O)COc1nsnc1N1CCOCC1 (stereo not drawn)
AC50 [1]: 0.0631 µM [falling, full curve]

Cc1ccc(NC(=O)COC(=O)c2sccc2C)cc1S(=O)(=O)N1CCOCC1
AC50 [2]: 2 µM [rising, full curve, poor fit]

O=S(=O)(c1ccc(C2CCCCC2)cc1)N1CCCC1
AC50 [1]: 15.8 µM [rising, single point] | AC50 [2]: 35.5 µM [rising, single point]

CCOC(=O)C1=C(c2cccc(Oc3ccccc3)c2)NC(=S)NC1C (stereo not drawn)
AC50 [1]: 20 µM [rising, single point] | AC50 [2]: 31.6 µM [rising, single point]

CCCC(=O)Nc1ccc(C(=O)NNC(=S)NC(=O)c2ccc(Br)o2)cc1
AC50 [1]: 1.58 µM [falling, partial curve, poor fit]

CCNC(=S)Nc1ccc(N2CCCCC2)cc1
AC50 [2]: 3.16 µM [falling, single point]

CC1(C)Cc2c(C#N)c(N3CCCC3)nc(-c3ccco3)c2CO1
AC50 [2]: 17.8 µM [rising, partial curve, poor fit]

COc1cccc(-c2nnc(NC(=O)c3ccc(S(=O)(=O)N4CC(C)OC(C)C4)cc3)o2)c1 (stereo not drawn)
AC50 [2]: 0.112 µM [rising, partial curve, poor fit]

Cc1ccc(C2=NN=C(NC(=O)CSc3nnc4c5ccccc5n(C)c4n3)SC2)cc1
AC50 [1]: 12.6 µM [rising, partial curve] | AC50 [2]: 17.8 µM [rising, partial curve]

Cc1ccc(SCCC(=O)Nc2cccc(N(C)S(C)(=O)=O)c2)cc1
AC50 [2]: 35.5 µM [rising, single point]
